Results are given in words; binding and its absence hold for the method and conditions named. In cells and extracts the contact can be indirect. Binding can be weak; no strength is given.
Molecular target: recombinant GST-HBeAg (hepatitis B e antigen) (hepatitis B virus)
Assay: co-IP; mixed recombinant proteins (GST-HBeAg and extracellular segment of TLR-2) incubated with GST or TLR-2 antibody or isotype IgG overnight at 4°C; Capturem IP & Co-IP Kit spin column; western blot with GST or TLR-2 antibody; both purified

B1: recombinant mouse TLR-2, extracellular segment (receptor, UniProt Q9QUN7 25-587)
chain: QESLSCDASGVCDGRSRSFTSIPSGLTAAMKSLDLSFNKITYIGHGDLRACANLQVLILKSSRINTIEGDAFYSLGSLEHLDLSDNHLSSLSSSWFGPLSSLKYLNLMGNPYQTLGVTSLFPNLTNLQTLRIGNVETFSEIRRIDFAGLTSLNELEIKALSLRNYQSQSLKSIRDIHHLTLHLSESAFLLEIFADILSSVRYLELRDTNLARFQFSPLPVDEVSSPMKKLAFRGSVLTDESFNELLKLLRYILELSEVEFDDCTLNGLGDFNPSESDVVSELGKVETVTIRRLHIPQFYLFYDLSTVYSLLEKVKRITVENSKVFLVPCSFSQHLKSLEFLDLSENLMVEEYLKNSACKGAWPSLQTLVLSQNHLRSMQKTGEILLTLKNLTSLDISRNTFHPMPDSCQWPEKMRFLNLSSTGIRVVKTCIPQTLEVLDVSNNNLDSFSLFLPRLQELYISRNKLKTLPDASLFPVLLVMKIRENAVSTFSKDQLGSFPKLETLEAGDNHFVCSCELLSFTMETPALAQILVDWPDSYLCDSPPRLHGHRLQDARPSVLECHQ
**Q.** With B1 as the binder, how does the binding read?
**A.** binds

From paper PMC8518250
